# According to PubChem BioAssay (EPA / NIEHS):
# This list was built around the results that the source calls inconclusive (neither active nor inactive); the mix of calls is not that of the screen. For part of these data: Where the call is inconclusive, the potency comes from a doubtful curve fit. Activity calls are given as the source filed them. Rule for the calls: active = hit-call score of the fitted dose curve at least 0.9, where 1 is the maximum; inconclusive = response in the unintended direction; inactive = score below 0.9.
# Assays:
# [1] = Tanguay_ZF_120hpf_SOMI_legacy: (Legacy) Oregon State University Tanguay Lab 120 Hour Post-fertilization zebrafish Assay for Somite Malformation (AID 2283647)
# Method in brief: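 Binary brightfield scoring of somite defects at 120 hpf in 5D wild-type larvae; one dechorionated embryo per well, static exposure from 6 hpf, 28C, sealed and dark. Final DMSO 0.64%; trimethyltin chloride 5uM positive control.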
# [2] = Tanguay_ZF_120hpf_PFIN_legacy: (Legacy) Oregon State University Tanguay Lab 120 Hour Post-fertilization zebrafish Assay for Pectoral Fin Malformation (AID 2283648);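 note: each larva judged yes or no for fin defect by brightfield with dead larvae skipped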
# Method in brief: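 Tropical 5D wild-type embryos, dechorionated with pronase at 4 hpf, were placed singly in wells at 6 hpf and statically exposed until 120 hpf at 28C, sealed and dark, with 0.64% (vol/vol) final DMSO; pectoral fin malformation scored present/absent.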
# [3] = Tanguay_ZF_120hpf_PIG_legacy: (Legacy) Oregon State University Tanguay Lab 120 Hour Post-fertilization zebrafish Assay for Pigmentation Malformation (AID 2283650)
# Method in brief: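 Tropical 5D wild-type zebrafish embryos, dechorionated with pronase at 4 hpf, were exposed singly from 6 hpf to 120 hpf statically at 28C in sealed, dark plates with 0.64% DMSO; pigmentation scored present/absent by brightfield microscopy, fitted against DMSO.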
# [4] = Tanguay_ZF_120hpf_BRAI_legacy: (Legacy) Oregon State University Tanguay Lab 120 Hour Post-fertilization zebrafish Assay for Brain Malformation (AID 2283641)
# Method in brief: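 Read-out: binary brain morphology call at 120 hpf (brightfield), fitted in gain-of-signal direction vs DMSO. Wild-type Tropical 5D embryos, static exposure, 28C, 0.64% DMSO final; 5uM trimethyltin chloride as positive control.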
# [5] = Tanguay_ZF_120hpf_SWIM_legacy: (Legacy) Oregon State University Tanguay Lab 120 Hour Post-fertilization zebrafish Assay for Swim Bladder Malformation (AID 2283654);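 note: swim bladder malformation in each larva scored yes or no under brightfield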
# Method in brief: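 Dechorionated Tropical 5D wild-type embryos, placed singly from 6 hpf, were statically exposed at 28C to 120 hpf with 0.64% DMSO final; swim bladder malformation was scored present/absent by brightfield microscopy, gain of signal relative to DMSO controls.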
# [6] = Tanguay_ZF_120hpf_CFIN_legacy: (Legacy) Oregon State University Tanguay Lab 120 Hour Post-fertilization zebrafish Assay for Caudal Fin Malformation (AID 2283649)
# Method in brief: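 Dechorionated 5D wild-type zebrafish, static exposure 6–120 hpf, 28C, sealed and dark, 0.64% v/v DMSO final. Binary fin-malformation call at 120 hpf, brightfield; gain of signal vs DMSO baseline.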
# [7] = Tanguay_ZF_120hpf_CIRC_legacy: (Legacy) Oregon State University Tanguay Lab 120 Hour Post-fertilization zebrafish Assay for Circulatory Malformation (AID 2283651)
# Method in brief: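 Dechorionated wild-type 5D zebrafish embryos, one per well, statically exposed from 6 to 120 hpf at 28C with 0.64% DMSO; circulatory malformation scored present/absent by brightfield microscopy at 120 hpf, dead embryos excluded.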
# [8] = Tanguay_ZF_120hpf_TRUN_legacy: (Legacy) Oregon State University Tanguay Lab 120 Hour Post-fertilization zebrafish Assay for Truncated Body (AID 2283655)
# Method in brief: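 Whole-embryo zebrafish screen: dechorionated 5D embryos, static exposure 6–120 hpf, 28C, sealed foil-covered plates, 0.64% DMSO. Binary truncation call; gain of signal versus DMSO baseline.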
# [9] = Tanguay_ZF_120hpf_PE_legacy: (Legacy) Oregon State University Tanguay Lab 120 Hour Post-fertilization zebrafish Assay for Pericardial Edema (AID 2283640)
# Method in brief: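 Static waterborne exposure, 5D wild-type embryos, 28C, to 120 hpf; final DMSO 0.64% (vol/vol). Binary PE call at 120 hpf by brightfield; fitted upward vs DMSO baseline. 5uM trimethyltin chloride as positive control.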
compound,measurement,setting,value
CC(C)=CCCC(C)=CC=O,outcome,[1],inactive
same,AC50,[2],inconclusive: 3.3 µM
CCCOc1ccc(S(=O)(=O)N2CCN(CC)CC2)cc1-c1nc2c(CC)n(Cc3ccccn3)nc2c(=O)[nH]1,AC50,[1],inconclusive: 202 µM
CCN(CC)CCOc1ccc(C(=C(Cl)c2ccccc2)c2ccccc2)cc1,AC50,[1],inconclusive: 6.29 µM
same,AC50,[2],inconclusive: 3.41 µM
same,AC50,[3],inconclusive: 2.27 µM
CC(C)(O)c1ccc(CNC(=O)c2cccnc2Oc2ccc3nonc3c2)cc1,outcome,[4],inactive
same,AC50,[3],inconclusive: 202 µM
same,outcome,[5],inactive
CCCOC(=O)c1cc(O)c(O)c(O)c1,outcome,[4],inactive
same,AC50,[6],inconclusive: 3.16 µM
Oc1ccc2ccccc2c1N=Nc1ccccc1,AC50,[4],inconclusive: 32.7 µM
same,outcome,[7],inactive
same,AC50,[5],active: 51.7 µM
Nc1ccc(Nc2ccccc2)cc1,AC50,[4],active: 45.1 µM
same,AC50,[1],active: 40.1 µM
same,AC50,[2],active: 41.2 µM
same,AC50,[6],active: 47 µM
same,AC50,[3],active: 48.7 µM
same,AC50,[7],inconclusive: 4.28 µM
same,AC50,[5],active: 45.6 µM
same,AC50,[8],active: 40.8 µM
CCCCCCCCCCCCO,outcome,[9],inactive
same,outcome,[8],inactive
OC12N=C(c3ccccc3)SC1Cc1cc(Cl)ccc12 (stereo unspecified),AC50,[1],active: 117 µM
same,outcome,[2],inactive
same,AC50,[6],active: 48.1 µM
same,AC50,[3],active: 44.5 µM
same,AC50,[8],active: 48.2 µM
CCCCCc1ccc(N)cc1,AC50,[1],inconclusive: 27.8 µM
Clc1ccccc1C(c1ccccc1)(c1ccccc1)n1ccnc1,AC50,[4],active: 87.3 µM
same,AC50,[1],active: 61.3 µM
same,AC50,[3],inconclusive: 68.3 µM
same,AC50,[8],inconclusive: 147 µM
CCOC(=O)COc1cc(-n2ncc(C(F)(F)F)c(C)c2=O)c(F)cc1Cl,AC50,[4],inconclusive: 21.1 µM
O=C(O)c1cccc(Oc2ccccc2)c1,AC50,[1],inconclusive: 11.8 µM
NC(=O)Cn1c(=O)cc(CCN2CCN(c3nccc4sccc34)CC2)c2ccc(F)cc21,AC50,[4],inconclusive: 8.49 µM
same,AC50,[1],inconclusive: 202 µM
same,AC50,[3],inconclusive: 30.2 µM
same,outcome,[8],inactive
CCCOC(=O)c1ccc(C(=O)OCCC)nc1,AC50,[4],inconclusive: 0.984 µM
same,AC50,[1],inconclusive: 130 µM
same,AC50,[6],inconclusive: 143 µM
same,AC50,[7],inconclusive: 10.6 µM
same,AC50,[5],active: 1.97 µM
same,AC50,[8],inconclusive: 202 µM
OC(Cn1cncn1)(Cn1cncn1)c1ccc(F)cc1F,AC50,[4],inconclusive: 35.2 µM
same,AC50,[1],inconclusive: 202 µM
same,outcome,[7],inactive
same,outcome,[5],inactive
same,AC50,[8],inconclusive: 1.95 µM
O=C(O)Cc1cc(I)c(Oc2cc(I)c(O)c(I)c2)c(I)c1,AC50,[4],active: 0.00612 µM
same,outcome,[2],inactive
same,AC50,[3],active: 0.0192 µM
CCN(Cc1cccc(S(=O)(=O)O)c1)c1ccc(C(=C2C=CC(=[N+](CC)Cc3cccc(S(=O)(=O)O)c3)C=C2)c2ccccc2S(=O)(=O)[O-])cc1,AC50,[4],inconclusive: 0.688 µM
same,AC50,[5],inconclusive: 23.2 µM
NC(=O)N1c2ccccc2C=Cc2ccccc21,outcome,[4],inactive
O=C(c1ccc(O)cc1O)c1ccc(O)cc1O,outcome,[4],inactive
same,outcome,[1],inactive
same,AC50,[3],inconclusive: 125 µM
same,AC50,[5],inconclusive: 59.3 µM
C=CC(=C)CCC=C(C)C,outcome,[4],inactive
same,AC50,[2],inconclusive: 152 µM
O=[N+]([O-])c1ccc(O)cc1,AC50,[4],inconclusive: 202 µM
same,AC50,[3],inconclusive: 25.8 µM
same,AC50,[7],inconclusive: 30.4 µM

# A section from the list above, for reference:
compound,measurement,setting,value
Oc1ccc2ccccc2c1N=Nc1ccccc1,AC50,[4],inconclusive: 32.7 µM
same,outcome,[7],inactive
same,AC50,[5],active: 51.7 µM
Nc1ccc(Nc2ccccc2)cc1,AC50,[4],active: 45.1 µM
same,AC50,[1],active: 40.1 µM
same,AC50,[2],active: 41.2 µM
same,AC50,[6],active: 47 µM
same,AC50,[3],active: 48.7 µM
same,AC50,[7],inconclusive: 4.28 µM
same,AC50,[5],active: 45.6 µM
same,AC50,[8],active: 40.8 µM

# 2 neighbouring records out of the list so far:
compound,measurement,setting,value
NC(=O)Cn1c(=O)cc(CCN2CCN(c3nccc4sccc34)CC2)c2ccc(F)cc21,outcome,[8],inactive
CCCOC(=O)c1ccc(C(=O)OCCC)nc1,AC50,[4],inconclusive: 0.984 µM
